According to patent publication EP4768038A1, “NOVEL USE OF NONAPEPTIDE” (Ensol Biosciences Inc., priority 2023, dated 2026):
At least one peptide structure holds a part that was inferred or is arguable (an end, a ring closure or a residue). Where a SMILES comes first, the peptide text is derived from it.

Tested on: db/db mice
Assay: Inhibitory effect on weight gain in obesity-induced animals (oral administration)
Format: in vivo
Details: for Weight gain reduction rate (%) (Compared to the weight gain of the negative control group): three weeks after completion of administration

In the case of `C[C@H](NC(=O)CNC(=O)[C@H](C)NC(=O)CNC(=O)[C@@H](N)Cc1ccc(O)cc1)C(=O)NCC(=O)N[C@@H](C)C(=O)NCC(=O)N[C@@H](Cc1ccc(O)cc1)C(=O)O` [Example 1, YGAGAGAGY] (H-YGAGAGAGY-OH), the “increase in body weight relative to that before the start of administration” value (10 mg/kg oral for 4 weeks, 3 weeks after completion of administration (week 7), negative control 14.5 g) is reported as 13.0 g, the “Weight gain reduction rate (%) (Compared to the weight gain of the negative control group)” value (shortened to “Weight gain reduction rate (%)”) (10 mg/kg oral) is reported as 10.4% and the “increase in body weight relative to that before the start of administration” value (10 mg/kg oral, twice daily, 5 days per week for 4 weeks, at the end of the 4-week administration period (week 4), negative control 10.3 g) is reported as 9.1 g. The “increase in body weight relative to that before the start of administration” value (30 mg/kg oral for 4 weeks, 3 weeks after completion of administration (week 7), negative control 14.5 g) was 11.2 g, the “Weight gain reduction rate (%)” value (30 mg/kg oral) was 22.5% and the “increase in body weight relative to that before the start of administration” value (30 mg/kg oral, twice daily, 5 days per week for 4 weeks, at the end of the 4-week administration period (week 4), negative control 10.3 g) was 6.5 g. The “increase in body weight relative to that before the start of administration” value (100 mg/kg oral for 4 weeks, 3 weeks after completion of administration (week 7), negative control 14.5 g) was 10.8 g, the “Weight gain reduction rate (%)” value (100 mg/kg oral) was 25.4% and the “increase in body weight relative to that before the start of administration” value (100 mg/kg oral, twice daily, 5 days per week for 4 weeks, at the end of the 4-week administration period (week 4), negative control 10.3 g) was 8.8 g.
